Target: T1, Thiosulfate sulfurtransferase (Homo sapiens, UniProt Q16762)
T1 sequence (Q16762 whole entry): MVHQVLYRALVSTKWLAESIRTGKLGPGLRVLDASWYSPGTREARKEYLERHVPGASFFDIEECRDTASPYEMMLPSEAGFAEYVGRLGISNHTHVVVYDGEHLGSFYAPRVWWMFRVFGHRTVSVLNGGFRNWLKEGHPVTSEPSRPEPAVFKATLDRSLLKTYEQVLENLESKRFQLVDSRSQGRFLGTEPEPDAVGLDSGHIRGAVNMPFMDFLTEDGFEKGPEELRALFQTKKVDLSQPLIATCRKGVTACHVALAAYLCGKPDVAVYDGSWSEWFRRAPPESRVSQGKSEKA
Format: ADME
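Further: native rhodanese of unspecified species, enzyme activity read after 45 min by spectrophotometric detection of Fe(SCN)3 colour, IC50 reflects activity reduction.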

CCCCCCCCCCCCCCCC[n+]1ccccc1
IC50: > 100 µM
